This test addresses T1, DHR2 domain of human DOCK11 (DOCK11^DHR2, residues 1609-2073) (human) (UniProt Q5JSL3).
T1 sequence: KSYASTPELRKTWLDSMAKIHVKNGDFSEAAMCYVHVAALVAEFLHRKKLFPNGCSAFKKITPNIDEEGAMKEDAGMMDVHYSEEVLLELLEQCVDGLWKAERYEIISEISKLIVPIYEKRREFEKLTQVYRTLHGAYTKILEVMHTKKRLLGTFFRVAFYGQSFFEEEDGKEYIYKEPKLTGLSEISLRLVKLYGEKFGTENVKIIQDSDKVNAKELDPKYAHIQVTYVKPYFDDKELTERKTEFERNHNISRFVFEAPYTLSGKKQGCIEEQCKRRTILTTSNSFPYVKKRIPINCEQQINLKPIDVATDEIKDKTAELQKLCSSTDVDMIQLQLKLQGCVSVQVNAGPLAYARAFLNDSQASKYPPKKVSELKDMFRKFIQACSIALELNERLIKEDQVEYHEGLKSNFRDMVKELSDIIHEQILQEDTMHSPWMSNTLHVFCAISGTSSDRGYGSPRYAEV
Put plainly: pull-down.

Amino acid sequences for entries named in this document (tags omitted).
UniProt P60953: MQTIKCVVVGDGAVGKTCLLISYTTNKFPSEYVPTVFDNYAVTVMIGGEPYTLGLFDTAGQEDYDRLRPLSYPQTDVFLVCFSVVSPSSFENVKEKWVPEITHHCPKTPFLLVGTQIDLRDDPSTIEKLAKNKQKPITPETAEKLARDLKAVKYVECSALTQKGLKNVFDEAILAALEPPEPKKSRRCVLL

No constants are given. Whether binding was seen depends on the method and setting. Some entries that bind do so weakly or less than the wild type.

Consider “CDC42 (residues 1-191) (from UniProt P60953 1-191)”, for which the binding result is given as “binds”.
